# Results taken from publication PMC12418378, “Intrinsically disordered region of Clr4/Suv39 regulates its enzymatic activity and ensures heterochromatin spreading” (Nucleic Acids Research, 2025).
# The chains behind the UniProt entries cited, without tags or fusion partners. Where a name states a change or a piece, a line headed by the entry shows the natural chain unless it says otherwise. Residues count along the entry.
# UniProt O60016, residues 1-191: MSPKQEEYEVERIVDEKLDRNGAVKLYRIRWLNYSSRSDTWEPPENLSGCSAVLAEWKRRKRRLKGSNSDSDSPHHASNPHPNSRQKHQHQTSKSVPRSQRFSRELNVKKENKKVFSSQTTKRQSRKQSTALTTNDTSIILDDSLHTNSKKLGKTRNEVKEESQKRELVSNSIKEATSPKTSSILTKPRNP
# Results are given in words; binding and its absence hold for the method and conditions named. A result given as binding can be weak or reduced; the word gives no strength.
# Biological target: GST-fused Clr4 N-terminus (GST-Clr4-N, amino acids 1-191) (S. pombe) (UniProt O60016)
# Test: pull-down; GST-fused Clr4 (0.2 nmol) on Glutathione Magnetic Agarose Beads, 0.2 nmol MBP-fused Clr4 in 200 μl of 10 mM Tris-HCl pH 7.5, 150 mM NaCl, 0.1 mM EDTA, 0.1% Triton X-100, 4°C, 2 h; SDS-PAGE and CBB staining; also at 0 mM NaCl and with pericentromeric RNA added; both purified
substance,measurement,value
MBP-Clr4-C with deletion of the central region of the ARL (Δ) (from UniProt O60016) (domain or fragment),binding,binds
